Laboratory results as given in patent US6394994B1, “Method for testing the ability of an iontophoretic reservoir-electrode to deliver a medicament” (Vyteris, Inc., priority 1999, dated 2002).
Counter-ions that a name gives are not always drawn.

Test: iontophoretic reservoir-electrode delivery test into a separation medium (ion exchange membrane), extraction and HPLC assay
Conditions: for Lidocaine HCl (n = 3, mg) Mean ± SD: membrane pretreated with 0.9% saline; for Lidocaine HCl (mg) Mean ± SD, n = 3 / Epinephrine (mg) Mean ± SD, n = 3: reservoir-electrodes from a single lot; for Epinephrine recovered (mg) Mean ± SD, n = 5: epinephrine 1.05 mg

| Compound | Lidocaine HCl (n = 3, mg) Mean ± SD (0 mA (passive), contact time 0.67 min) [mg] | Lidocaine HCl (n = 3, mg) Mean ± SD (0 mA (passive), contact time 1.0 min) [mg] | Lidocaine HCl (n = 3, mg) Mean ± SD (0 mA (passive), contact time 1.5 min) [mg] | Lidocaine HCl (n = 3, mg) Mean ± SD (12 mA (active), contact time 1.5 min) [mg] | Ratio (active/passive) (12 mA vs 0 mA, contact time 1.5 min) | Lidocaine HCl (n = 3, mg) Mean ± SD (18 mA (active), contact time 1.0 min) [mg] | Ratio (active/passive) (18 mA vs 0 mA, contact time 1.0 min) | Lidocaine HCl (n = 3, mg) Mean ± SD (27 mA (active), contact time 0.67 min) [mg] | Ratio (active/passive) (27 mA vs 0 mA, contact time 0.67 min) | Lidocaine HCl (mg) Mean ± SD, n = 3 (ion exchange membrane Lot # 1) [mg] | Lidocaine HCl (mg) Mean ± SD, n = 3 (ion exchange membrane Lot # 2) [mg] | Lidocaine HCl (mg) Mean ± SD, n = 3 (ion exchange membrane Lot # 3) [mg] | ratio of active (iontophoretic) delivery to passive (diffusive) delivery (membrane pretreated with 0.18% calcium chloride for 24 hours (FIG. 7)) | ratio of active to passive delivery (membrane pretreated with 0.9% aqueous saline (NaCl) for 24 hours (FIG. 8)) | Epinephrine (mg) Mean ± SD, n = 3 (ion exchange membrane Lot # 1) [mg] | Epinephrine (mg) Mean ± SD, n = 3 (ion exchange membrane Lot # 2) [mg] | Epinephrine (mg) Mean ± SD, n = 3 (ion exchange membrane Lot # 3) [mg] | Epinephrine recovered (mg) Mean ± SD, n = 5 (reservoir-electrode loaded with Lidocaine HCl 25 mg/unit) [mg] | Epinephrine recovered (mg) Mean ± SD, n = 5 (reservoir-electrode loaded with Lidocaine HCl 50 mg/unit) [mg] | Epinephrine recovered (mg) Mean ± SD, n = 5 (reservoir-electrode loaded with Lidocaine HCl 100 mg/unit) [mg] |
| --- | --- | --- | --- | --- | --- | --- | --- | --- | --- | --- | --- | --- | --- | --- | --- | --- | --- | --- | --- | --- |
| CCN(CC)CC(=O)Nc1c(C)cccc1C [Lidocaine HCl, lidocaine HCl] | 0.25 ± 0.02 | 0.32 ± 0.05 | 0.39 ± 0.05 | 2.39 ± 0.08 | 6.2 | 2.47 ± 0.09 | 7.7 | 2.62 ± 0.09 | 10.3 | 2.46 ± 0.02 | 2.38 ± 0.05 | 2.37 ± 0.04 | 11.6 | about 7.7 |  |  |  |  |  |  |
| CNC[C@H](O)c1ccc(O)c(O)c1 [Epinephrine, epinephrine bitartrate] |  |  |  |  |  |  |  |  |  |  |  |  |  |  | 0.020 ± 0.001 | 0.017 ± 0.001 | 0.018 ± 0.001 | 0.075 ± 0.002 | 0.041 ± 0.001 | 0.02 ± 0.001 |
